Test results reported in article PMC12456220.

Columns and labels:
[1] = target: T1, Flag-MAVS-B (porcine MAVS 183-524aa) (porcine) (UniProt A0ZVR1); assay: co-IP
T1 sequence: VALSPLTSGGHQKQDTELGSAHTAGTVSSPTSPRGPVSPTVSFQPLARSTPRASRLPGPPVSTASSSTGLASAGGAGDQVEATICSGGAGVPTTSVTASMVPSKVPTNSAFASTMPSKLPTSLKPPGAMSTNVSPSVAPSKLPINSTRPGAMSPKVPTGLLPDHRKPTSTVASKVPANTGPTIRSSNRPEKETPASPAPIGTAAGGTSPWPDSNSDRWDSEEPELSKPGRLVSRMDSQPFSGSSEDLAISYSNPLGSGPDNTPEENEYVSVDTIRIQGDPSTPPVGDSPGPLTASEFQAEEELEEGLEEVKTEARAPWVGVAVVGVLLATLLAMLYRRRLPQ

[2] = target: S-Flag-MAVS (porcine mitochondrial antiviral signaling protein, full length) (porcine) (UniProt A0ZVR1); assay: co-IP

Row | Molecule | binding [1] | binding [2]
1 | Flag-IKK-ε (enzyme) | no binding | 
2 | Myc-TBK1 (enzyme) | no binding | 
3 | S-HA-Caspase-1 (porcine Caspase-1) (enzyme, UniProt Q9N2I1 1-404) MADKVLKEKRRLFVRSVAMGTINGLLDELLETRVLNQEEVEIVRGENATVMDKARALIDSVIRKGPQACQICINHICGDDPHLAGVLELSTGSQSGKCLTVQESQAVVPPFPAPQTVQDNPVKPASSEPRGSLKLCPPDIAQRLWKEKSAEIYPIMGKSIRTRLALIICNTEFENLPRRDGADVDIRDMKILLEDLGYSVDVRENLTASDMAIELKAFAARPEHKSSDSTFLVLMSHGIQAGICGKKYSEEVPDVLEVNTVFQILNTLNCPSLKDKPKVIIIQACRGEKQGVVWIKDSVGPSGNSSLLAAEDFEYDAIKKAHIEKDFIAFCSSTPDNVSWRHPLLGSLFIIKLIKILQEHAWSCGLEEIFRKVRFSFELADGRAQMPTAERVTLTRSFYLFPGH |  | binds
4 | S-HA-Caspase-1-C285A (porcine Caspase-1, enzymatically inactive mutant) (enzyme, UniProt Q9N2I1 1-404) MADKVLKEKRRLFVRSVAMGTINGLLDELLETRVLNQEEVEIVRGENATVMDKARALIDSVIRKGPQACQICINHICGDDPHLAGVLELSTGSQSGKCLTVQESQAVVPPFPAPQTVQDNPVKPASSEPRGSLKLCPPDIAQRLWKEKSAEIYPIMGKSIRTRLALIICNTEFENLPRRDGADVDIRDMKILLEDLGYSVDVRENLTASDMAIELKAFAARPEHKSSDSTFLVLMSHGIQAGICGKKYSEEVPDVLEVNTVFQILNTLNCPSLKDKPKVIIIQAARGEKQGVVWIKDSVGPSGNSSLLAAEDFEYDAIKKAHIEKDFIAFCSSTPDNVSWRHPLLGSLFIIKLIKILQEHAWSCGLEEIFRKVRFSFELADGRAQMPTAERVTLTRSFYLFPGH |  | binds

No constants are given. Whether binding was seen depends on the method and setting. Binding seen in cells or lysates may run through a third protein. For some of these results: A result given as binding can be weak or reduced; the word gives no strength. Tags and fused reporters may be left off the sequences shown.
